# The supplement of paper PMC12067093, “Discovery and optimisation of a covalent ligand for TRIM25 and its application to targeted protein ubiquitination” (Chemical Science, 2025)
# This is one part of the list.
# Compound: Cc1cc(ccc1-c1ccccc1)C(=O)N1CCCN(CC1)C(=O)CCl [compound 10]
# Test: probe-labelled cysteine peptide fold change vs DMSO (competition) (log2 fold change); higher = less target engagement (more negative = stronger competition)
# Details: THP-1, incubation time: 4 h
# 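Note: competitive profiling in live THP-1 cells: cysteine peptides tagged with an iodoacetamide desthiobiotin (IA-DTB) probe, intensity after compound treatment relative to DMSO-treated cells.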
target,measurement,setting,value
DCAF1_Q9Y4B6_1037_NPVATCPPFSLFTPHQCPEPK (UniProt Q9Y4B6),probe-labelled cysteine peptide fold change,10 µM,0.00178
same,probe-labelled cysteine peptide fold change,50 µM,-0.0472
CUL3_Q13618_316_TMCECMSSYLR (UniProt Q13618),probe-labelled cysteine peptide fold change,10 µM,0.0604
same,probe-labelled cysteine peptide fold change,50 µM,-0.0491
CTR9_Q6PD62_363_ENASQCFEK (UniProt Q6PD62),probe-labelled cysteine peptide fold change,10 µM,0.0943
same,probe-labelled cysteine peptide fold change,50 µM,0.277
DCAF10_Q5QP82_102_RPGPDCR (UniProt Q5QP82),probe-labelled cysteine peptide fold change,10 µM,-0.255
same,probe-labelled cysteine peptide fold change,50 µM,-0.267
DBT_P11182_99_EGDTVSQFDSICEVQSDK (UniProt P11182),probe-labelled cysteine peptide fold change,10 µM,-0.0362
same,probe-labelled cysteine peptide fold change,50 µM,0.32
CYFIP1_Q7L576_428_DCPDSAEEYER (UniProt Q7L576),probe-labelled cysteine peptide fold change,10 µM,-0.13
same,probe-labelled cysteine peptide fold change,50 µM,0.212
DCTN1_Q14203_636_FELSENCSERPGLR (UniProt Q14203),probe-labelled cysteine peptide fold change,10 µM,-0.207
same,probe-labelled cysteine peptide fold change,50 µM,-0.0675
CTSB_P07858_108_EIRDQGSCGSCWAFGAVEAISDR (UniProt P07858),probe-labelled cysteine peptide fold change,10 µM,-0.117
same,probe-labelled cysteine peptide fold change,50 µM,-0.328
CUL4B_Q13620_248_YNLEELYQAVENLCSYK (UniProt Q13620),probe-labelled cysteine peptide fold change,10 µM,0.317
same,probe-labelled cysteine peptide fold change,50 µM,0.245
DBR1_Q9UK59_36+37_GPGPVDLLLCCGDFQAVR (UniProt Q9UK59),probe-labelled cysteine peptide fold change,10 µM,-0.197
same,probe-labelled cysteine peptide fold change,50 µM,-0.29
CUTC_Q9NTM9_223_ILEGSGATEFHCSAR (UniProt Q9NTM9),probe-labelled cysteine peptide fold change,10 µM,0.127
same,probe-labelled cysteine peptide fold change,50 µM,0.0638
DARS_P14868_349_FLEPTLRLEYCEALAMLR (UniProt P14868),probe-labelled cysteine peptide fold change,10 µM,-0.183
same,probe-labelled cysteine peptide fold change,50 µM,-0.703
CWC27_Q6UX04_164_SCEVLFNPFDDIIPR (UniProt Q6UX04),probe-labelled cysteine peptide fold change,10 µM,0.0259
same,probe-labelled cysteine peptide fold change,50 µM,0.0151
DCAF12L1_Q5VU92_345_QDQQNIRPLCSR (UniProt Q5VU92),probe-labelled cysteine peptide fold change,10 µM,0.0518
same,probe-labelled cysteine peptide fold change,50 µM,-0.273
CUL2_Q13617_103_GADYMDCLYR (UniProt Q13617),probe-labelled cysteine peptide fold change,10 µM,0.162
same,probe-labelled cysteine peptide fold change,50 µM,0.199
DCPS_Q96C86_37_EAGVGNGTCAPVR (UniProt Q96C86),probe-labelled cysteine peptide fold change,10 µM,-0.318
same,probe-labelled cysteine peptide fold change,50 µM,-0.204
DCXR_Q7Z4W1_150_AVTNHSVYCSTK (UniProt Q7Z4W1),probe-labelled cysteine peptide fold change,10 µM,0.187
same,probe-labelled cysteine peptide fold change,50 µM,0.105
CUL1_Q13616_291_CEQVLIEK (UniProt Q13616),probe-labelled cysteine peptide fold change,10 µM,0.0321
same,probe-labelled cysteine peptide fold change,50 µM,0.168
CTSB_P07858_105_EIRDQGSCGSCWAFGAVEAISDR (UniProt P07858),probe-labelled cysteine peptide fold change,10 µM,-0.145
same,probe-labelled cysteine peptide fold change,50 µM,-0.569
DCAF1_Q9Y4B6_521_HTCMALR (UniProt Q9Y4B6),probe-labelled cysteine peptide fold change,10 µM,-0.162
same,probe-labelled cysteine peptide fold change,50 µM,0.185
CTSZ_Q9UBR2_92_NQHIPQYCGSCWAHASTSAMADR (UniProt Q9UBR2),probe-labelled cysteine peptide fold change,10 µM,0.19
same,probe-labelled cysteine peptide fold change,50 µM,-0.0928
DARS_P14868_130_IGSCTQQDVELHVQK (UniProt P14868),probe-labelled cysteine peptide fold change,10 µM,-0.0128
same,probe-labelled cysteine peptide fold change,50 µM,0.0502
DCPS_Q96C86_37_EAGVGNGTCAPVRLPFSGFR (UniProt Q96C86),probe-labelled cysteine peptide fold change,10 µM,-0.385
same,probe-labelled cysteine peptide fold change,50 µM,-0.503
CTSC_P53634_331_YAQDFGLVEEACFPYTGTDSPCK (UniProt P53634),probe-labelled cysteine peptide fold change,10 µM,0.15
same,probe-labelled cysteine peptide fold change,50 µM,0.322
CXorf38_Q8TB03_300_LDSLCLHQK (UniProt Q8TB03),probe-labelled cysteine peptide fold change,10 µM,-0.0363
same,probe-labelled cysteine peptide fold change,50 µM,-0.25
DAPK1_P53355_484_YGHADVAQLLCSFGSNPNIQDKEEETPLHCAAWHGYYSVAK (UniProt P53355),probe-labelled cysteine peptide fold change,10 µM,-0.0999
same,probe-labelled cysteine peptide fold change,50 µM,-0.026
CTSZ_Q9UBR2_296_YNLAIEEHCTFGDPIV (UniProt Q9UBR2),probe-labelled cysteine peptide fold change,10 µM,-0.348
same,probe-labelled cysteine peptide fold change,50 µM,-0.258
CYB5R3_P00387_204_AIMKDPDDHTVCHLLFANQTEK (UniProt P00387),probe-labelled cysteine peptide fold change,10 µM,-0.00544
same,probe-labelled cysteine peptide fold change,50 µM,-0.205
DCK_P27707_9_SCPSFSASSEGTR (UniProt P27707),probe-labelled cysteine peptide fold change,10 µM,-0.0377
same,probe-labelled cysteine peptide fold change,50 µM,-0.419
CUL7_Q14999_1201_AAFLLALQNGCAGALLK (UniProt Q14999),probe-labelled cysteine peptide fold change,10 µM,-0.473
same,probe-labelled cysteine peptide fold change,50 µM,0.0183
DBNL_Q9UJU6-3_256_NEQGSTCASLQESAVHPR (UniProt Q9UJU6),probe-labelled cysteine peptide fold change,10 µM,-0.341
same,probe-labelled cysteine peptide fold change,50 µM,-0.167
CXorf38_Q8TB03_133_QGPEECDAVALLSLINSCDHFVVDR (UniProt Q8TB03),probe-labelled cysteine peptide fold change,10 µM,0.0726
same,probe-labelled cysteine peptide fold change,50 µM,-0.137
CTR9_Q6PD62_511_LYEAMCEFHEAEK (UniProt Q6PD62),probe-labelled cysteine peptide fold change,10 µM,-0.016
same,probe-labelled cysteine peptide fold change,50 µM,0.0888
CTR9_Q6PD62_207_LGMGHCFVK (UniProt Q6PD62),probe-labelled cysteine peptide fold change,10 µM,-0.0764
same,probe-labelled cysteine peptide fold change,50 µM,-0.245
CYLD_Q9NQC7_252_VGETIESGTVIFCDVLPGK (UniProt Q9NQC7),probe-labelled cysteine peptide fold change,10 µM,-0.152
same,probe-labelled cysteine peptide fold change,50 µM,0.0402

# As a short view, part of the list above:
target,measurement,setting,value
DCPS_Q96C86_37_EAGVGNGTCAPVR (UniProt Q96C86),probe-labelled cysteine peptide fold change,50 µM,-0.204
DCXR_Q7Z4W1_150_AVTNHSVYCSTK (UniProt Q7Z4W1),probe-labelled cysteine peptide fold change,10 µM,0.187
same,probe-labelled cysteine peptide fold change,50 µM,0.105
CUL1_Q13616_291_CEQVLIEK (UniProt Q13616),probe-labelled cysteine peptide fold change,10 µM,0.0321
same,probe-labelled cysteine peptide fold change,50 µM,0.168
